Assay results published in US20240376154A1 (ZYMEWORKS BC INC., priority 2023, published 2024).

Assay: general procedure: Fmoc solid-phase peptide synthesis; 2-chlorotrityl resin (Chempep, 0.81 mmol/g)
Conditions: conjugation step

Row | Substance | conjugation yield
1 | N,N′-((7R,11S,19aS,26R,30S,38aS)-11,30-diisopropyl-12,31-dimethyl-6,10,13,19,25,29,32,38-octaoxodotriacontahydro-2H,6H,16H,25H-dipyrido[1,2-a1: 1′,2′-k][1,17]dioxa[4,7,11,14,20,23,27,30]octaazacyclodotriacontine-7,26-diyl)bis(3-(benzyloxy)quinoline-2-carboxamide) | 60% yield
2 | (2S,3S,4S,5R,6S)-6-((2-(((7R,11S,19aS,26R,30S,38aS)-7-(3-((4-((14S,17S)-1-(2,5-dioxo-2,5-dihydro-1H-pyrrol-1-yl)-14-isopropyl-12,15-dioxo-17-(3-ureidopropyl)-3,6,9-trioxa-13,16-diazaoctadecan-18-amido)benzyl)oxy)quinoline-2-carboxamido)-11,30-diisopropyl-12,15,31,34-tetramethyl-6,10,13,16,19,25,29,32,35,38-decaoxotetratriacontahydro-2H,6H,10H-dipyrido[2,1-b1: 2′,1′-l][1]oxa[4,7,10,13,17,20,23,26,29]nonaazacyclodotriacontin-26-yl)carbamoyl)quinolin-3-yl)oxy)-3,4,5-trihydroxytetrahydro-2H-pyran-2-carboxylic acid | 42% yield
3 | (2S,3S,4S,5R,6S)-6-((2-(((7R,11S,19aS,26R,30S,38aS)-26-(3-((4-((14S,17S)-1-(2,5-dioxo-2,5-dihydro-1H-pyrrol-1-yl)-14-isopropyl-12,15-dioxo-17-(3-ureidopropyl)-3,6,9-trioxa-13,16-diazaoctadecan-18-amido)benzyl)oxy)quinoline-2-carboxamido)-11,30-diisopropyl-12,15,31,34-tetramethyl-6,10,13,16,19,25,29,32,35,38-decaoxohexatriacontahydro-2H,6H-dipyrido[1,2-a:1′,2′-q][1,4,7,10,13,17,20,23,26,29]decaazacyclodotriacontin-7-yl)carbamoyl)quinolin-3-yl)oxy)-3,4,5-trihydroxytetrahydro-2H-pyran-2-carboxylic acid | 40% yield

Same assay, conditions: late stage modification step

Row | Substance | step yield
4 | N,N′-((7R,10aS,22aS,29R,32aS,44aS)-6,10,16,22,28,32,38,44-octaoxotetracontahydro-2H,19H-tetrapyrido[1,2-a1: 1′,2′-d: 1″,2″-k: 1′″,2′″-t][1,17]dioxa[4,7,11,14,20,23,27,30]octaazacyclodotriacontine-7,29-diyl)bis(3-hydroxyquinoline-2-carboxamide) | 62% yield
5 | N,N′-((7′R,19a'S,26′R,30'S,38a'S)-30′-isopropyl-12′,15′,31′,34′-tetramethyl-6′,10′,13′,16′,19′,25′,29′,32′,35′,38′-decaoxotetratriacontahydro-2′H,6′H,12′H-spiro[cyclobutane-1,11′-dipyrido[1,2-a:1′,2′-q][1,4,7,10,13,17,20,23,26,29]decaazacyclodotriacontine]-7′,26′-diyl)bis(3-hydroxyquinoline-2-carboxamide) | 31% yield
6 | N,N′-((7′R,19a'S,26′R,30'S,38a'S)-30′-isopropyl-12′,15′,31′,34′-tetramethyl-6′,10′,13′,16′,19′,25′,29′,32′,35′,38′-decaoxotetratriacontahydro-2′H,6′H,12′H-spiro[cyclopropane-1,11′-dipyrido[1,2-a:1′,2′-q][1,4,7,10,13,17,20,23,26,29]decaazacyclodotriacontine]-7′,26′-diyl)bis(3-hydroxyquinoline-2-carboxamide) | 36% yield
7 | N,N′-((7R,11S,19aS,26R,30S,38aS)-11,30-diisopropyl-12,31-dimethyl-6,10,13,16,19,25,29,32,35,38-decaoxo-15,34-dipropylhexatriacontahydro-2H,6H-dipyrido[1,2-a:1′,2′-q][1,4,7,10,13,17,20,23,26,29]decaazacyclodotriacontine-7,26-diyl)bis(3-hydroxyquinoline-2-carboxamide) | 36% yield
8 | N,N′-((7R,11S,19aS,26R,30S,38aS)-11,30-dicyclohexyl-12,15,31,34-tetramethyl-6,10,13,16,19,25,29,32,35,38-decaoxohexatriacontahydro-2H,6H-dipyrido[1,2-a:1′,2′-q][1,4,7,10,13,17,20,23,26,29]decaazacyclodotriacontine-7,26-diyl)bis(3-hydroxyquinoline-2-carboxamide) | 15% yield
9 | N,N′-((7R,11S,19aS,26R,30S,38aS)-11,30-diisopropyl-9,12,15,28,31,34-hexamethyl-6,10,13,16,19,25,29,32,35,38-decaoxohexatriacontahydro-2H,6H-dipyrido[1,2-a:1′,2′-q][1,4,7,10,13,17,20,23,26,29]decaazacyclodotriacontine-7,26-diyl)bis(3-(benzyloxy)quinoline-2-carboxamide) | 100% yield
